In patent publication US20090169553A1:
Results are given in words; binding and its absence hold for the method and conditions named. A result given as binding can be weak or reduced; the word gives no strength.

Molecular target: tPA (Homo sapiens (Human))
Assay: SDS-PAGE, SDS-stable complex with a molar excess of tPA

B1: TEV cleaved purified native sequence recombinant mouse neuroserpin (protein, UniProt O35684 17-410, looked up)
chain: TGATFPDETITEWSVNMYNHLRGTGEDENILFSPLSIALAMGMMELGAQGSTRKEIRHSMGYEGLKGGEEFSFLRDFSNMASAEENQYVMKLANSLFVQNGFHVNEEFLQMLKMYFNAEVNHVDFSQNVAVANSINKWVENYTNSLLKDLVSPEDFDGVTNLALINAVYFKGNWKSQFRPENTRTFSFTKDDESEVQIPMMYQQGEFYYGEFSDGSNEAGGIYQVLEIPYEGDEISMMLALSRQEVPLATLEPLLKAQLIEEWANSVKKQKVEVYLPRFTVEQEIDLKDILKALGVTEIFIKDANLTAMSDKKELFLSKAVHKSCIEVNEEGSEAAAASGMIAISRMAVLYPQVIVDHPFLYLIRNRKSGIILFMGRVMNPETMNTSGHDFEEL
binding: binds
